# Source: the supplement of paper PMC11732987, “Enantioselective OTUD7B fragment discovery through chemoproteomics screening and high-throughput optimisation” (Communications Chemistry, 2025)
# Sequences of proteins named here, by UniProt entry; tags and fusion partners are left off. A change or cut given only in a name is not applied to a line headed by its entry. Residues count along the entry.
# UniProt Q9Y6J0, 1755-1775: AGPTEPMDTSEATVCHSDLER
# UniProt Q8NFC6, 2321-2346: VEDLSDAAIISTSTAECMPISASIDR
# UniProt Q8NFC6, 1547-1570: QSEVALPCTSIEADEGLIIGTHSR
# UniProt P51587, whole entry, looked up: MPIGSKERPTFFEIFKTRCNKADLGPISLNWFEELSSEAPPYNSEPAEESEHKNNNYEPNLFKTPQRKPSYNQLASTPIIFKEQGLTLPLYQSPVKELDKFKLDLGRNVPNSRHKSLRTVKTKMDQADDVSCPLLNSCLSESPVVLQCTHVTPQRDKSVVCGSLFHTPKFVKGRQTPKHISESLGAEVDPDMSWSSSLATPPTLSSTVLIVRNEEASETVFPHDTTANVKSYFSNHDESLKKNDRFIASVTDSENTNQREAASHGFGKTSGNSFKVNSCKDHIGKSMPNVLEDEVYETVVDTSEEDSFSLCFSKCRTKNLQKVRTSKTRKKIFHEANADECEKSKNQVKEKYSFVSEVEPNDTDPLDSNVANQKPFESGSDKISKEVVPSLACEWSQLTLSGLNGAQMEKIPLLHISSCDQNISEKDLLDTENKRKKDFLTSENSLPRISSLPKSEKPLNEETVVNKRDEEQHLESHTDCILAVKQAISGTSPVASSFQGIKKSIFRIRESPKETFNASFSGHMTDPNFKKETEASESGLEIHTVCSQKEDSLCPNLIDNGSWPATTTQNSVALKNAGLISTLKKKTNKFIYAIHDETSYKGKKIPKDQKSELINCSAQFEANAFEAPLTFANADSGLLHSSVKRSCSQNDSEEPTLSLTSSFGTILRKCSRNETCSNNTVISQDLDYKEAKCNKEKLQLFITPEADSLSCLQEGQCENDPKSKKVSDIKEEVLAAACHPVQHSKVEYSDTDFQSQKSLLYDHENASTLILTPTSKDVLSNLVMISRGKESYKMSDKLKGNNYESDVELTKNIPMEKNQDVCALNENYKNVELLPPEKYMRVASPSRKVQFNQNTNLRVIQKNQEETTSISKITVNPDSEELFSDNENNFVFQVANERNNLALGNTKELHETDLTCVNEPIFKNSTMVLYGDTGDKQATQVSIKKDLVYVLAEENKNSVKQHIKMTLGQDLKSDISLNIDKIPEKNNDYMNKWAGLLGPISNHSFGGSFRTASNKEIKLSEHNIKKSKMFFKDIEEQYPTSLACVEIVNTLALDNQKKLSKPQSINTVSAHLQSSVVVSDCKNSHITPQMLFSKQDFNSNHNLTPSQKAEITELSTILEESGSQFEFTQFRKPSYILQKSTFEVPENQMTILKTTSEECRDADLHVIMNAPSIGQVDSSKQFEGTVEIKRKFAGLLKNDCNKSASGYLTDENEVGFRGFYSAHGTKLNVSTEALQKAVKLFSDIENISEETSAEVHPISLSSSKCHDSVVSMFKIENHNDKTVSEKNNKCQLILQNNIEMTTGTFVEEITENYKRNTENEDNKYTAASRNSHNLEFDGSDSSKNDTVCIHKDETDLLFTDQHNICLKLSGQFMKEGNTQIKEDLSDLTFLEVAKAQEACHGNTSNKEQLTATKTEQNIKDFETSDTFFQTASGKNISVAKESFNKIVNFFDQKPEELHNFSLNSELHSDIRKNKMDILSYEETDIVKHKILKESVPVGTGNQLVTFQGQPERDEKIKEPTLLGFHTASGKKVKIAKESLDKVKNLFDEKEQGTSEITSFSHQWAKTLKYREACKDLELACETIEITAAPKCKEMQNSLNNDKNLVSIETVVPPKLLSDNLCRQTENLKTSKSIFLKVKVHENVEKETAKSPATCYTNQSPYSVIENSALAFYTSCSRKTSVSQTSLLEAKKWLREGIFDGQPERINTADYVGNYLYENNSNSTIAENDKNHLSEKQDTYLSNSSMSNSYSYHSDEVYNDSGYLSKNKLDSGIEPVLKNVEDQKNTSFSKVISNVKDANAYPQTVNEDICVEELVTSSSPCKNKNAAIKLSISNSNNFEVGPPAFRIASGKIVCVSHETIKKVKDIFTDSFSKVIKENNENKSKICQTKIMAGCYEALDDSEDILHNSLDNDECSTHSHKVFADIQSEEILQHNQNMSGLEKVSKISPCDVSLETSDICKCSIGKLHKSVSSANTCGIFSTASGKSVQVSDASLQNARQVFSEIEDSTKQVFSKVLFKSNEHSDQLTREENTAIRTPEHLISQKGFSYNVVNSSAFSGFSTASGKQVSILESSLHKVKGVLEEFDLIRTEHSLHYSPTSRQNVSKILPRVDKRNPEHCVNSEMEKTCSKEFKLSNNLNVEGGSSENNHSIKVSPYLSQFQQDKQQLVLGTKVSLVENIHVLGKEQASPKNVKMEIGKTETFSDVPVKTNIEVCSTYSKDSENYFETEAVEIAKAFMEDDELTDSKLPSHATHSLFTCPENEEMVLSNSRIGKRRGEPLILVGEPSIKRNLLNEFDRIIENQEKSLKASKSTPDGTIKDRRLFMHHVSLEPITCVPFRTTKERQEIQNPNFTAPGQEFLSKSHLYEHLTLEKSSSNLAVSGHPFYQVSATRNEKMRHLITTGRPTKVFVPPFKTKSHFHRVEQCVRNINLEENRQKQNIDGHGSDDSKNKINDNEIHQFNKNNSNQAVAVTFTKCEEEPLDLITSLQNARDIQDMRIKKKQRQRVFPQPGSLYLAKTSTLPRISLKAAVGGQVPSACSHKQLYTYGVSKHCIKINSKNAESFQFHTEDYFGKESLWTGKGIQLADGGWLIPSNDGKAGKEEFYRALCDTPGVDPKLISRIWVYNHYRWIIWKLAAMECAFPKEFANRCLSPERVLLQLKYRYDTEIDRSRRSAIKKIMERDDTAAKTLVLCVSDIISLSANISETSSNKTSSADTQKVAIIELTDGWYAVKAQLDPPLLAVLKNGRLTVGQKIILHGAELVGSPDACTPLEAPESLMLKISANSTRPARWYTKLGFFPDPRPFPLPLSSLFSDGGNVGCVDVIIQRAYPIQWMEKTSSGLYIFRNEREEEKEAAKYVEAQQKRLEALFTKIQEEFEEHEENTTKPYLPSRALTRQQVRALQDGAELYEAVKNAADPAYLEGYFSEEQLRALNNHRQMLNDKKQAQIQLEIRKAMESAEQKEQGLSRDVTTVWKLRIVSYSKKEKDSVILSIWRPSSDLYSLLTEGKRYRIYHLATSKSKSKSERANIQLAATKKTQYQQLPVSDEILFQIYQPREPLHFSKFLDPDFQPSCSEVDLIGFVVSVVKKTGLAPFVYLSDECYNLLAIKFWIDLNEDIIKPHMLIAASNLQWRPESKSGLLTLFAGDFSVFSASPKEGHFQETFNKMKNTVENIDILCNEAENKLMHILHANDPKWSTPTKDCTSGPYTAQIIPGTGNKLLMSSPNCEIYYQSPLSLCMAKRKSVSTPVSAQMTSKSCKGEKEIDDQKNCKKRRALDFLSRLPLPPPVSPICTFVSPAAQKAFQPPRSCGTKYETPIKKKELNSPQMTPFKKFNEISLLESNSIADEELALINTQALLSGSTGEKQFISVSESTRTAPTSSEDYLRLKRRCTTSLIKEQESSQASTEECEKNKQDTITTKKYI
# UniProt Q86WA6: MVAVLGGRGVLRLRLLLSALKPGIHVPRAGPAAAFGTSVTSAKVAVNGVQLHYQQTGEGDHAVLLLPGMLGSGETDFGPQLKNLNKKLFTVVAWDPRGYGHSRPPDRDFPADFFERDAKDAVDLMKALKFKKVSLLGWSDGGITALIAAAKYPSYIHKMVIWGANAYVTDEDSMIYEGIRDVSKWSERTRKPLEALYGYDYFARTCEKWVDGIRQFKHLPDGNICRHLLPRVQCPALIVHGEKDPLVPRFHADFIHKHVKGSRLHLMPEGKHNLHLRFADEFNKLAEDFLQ
# UniProt O60566, 733-752: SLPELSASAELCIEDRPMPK
# UniProt Q32NC0: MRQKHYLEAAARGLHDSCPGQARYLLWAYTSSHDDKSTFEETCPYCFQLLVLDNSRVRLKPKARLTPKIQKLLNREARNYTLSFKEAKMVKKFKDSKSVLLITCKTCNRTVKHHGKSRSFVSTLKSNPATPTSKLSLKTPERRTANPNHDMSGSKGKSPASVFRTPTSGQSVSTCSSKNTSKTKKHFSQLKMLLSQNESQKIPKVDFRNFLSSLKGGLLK
# UniProt Q9BSJ5, 164-187: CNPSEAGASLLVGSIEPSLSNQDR
# UniProt P17655: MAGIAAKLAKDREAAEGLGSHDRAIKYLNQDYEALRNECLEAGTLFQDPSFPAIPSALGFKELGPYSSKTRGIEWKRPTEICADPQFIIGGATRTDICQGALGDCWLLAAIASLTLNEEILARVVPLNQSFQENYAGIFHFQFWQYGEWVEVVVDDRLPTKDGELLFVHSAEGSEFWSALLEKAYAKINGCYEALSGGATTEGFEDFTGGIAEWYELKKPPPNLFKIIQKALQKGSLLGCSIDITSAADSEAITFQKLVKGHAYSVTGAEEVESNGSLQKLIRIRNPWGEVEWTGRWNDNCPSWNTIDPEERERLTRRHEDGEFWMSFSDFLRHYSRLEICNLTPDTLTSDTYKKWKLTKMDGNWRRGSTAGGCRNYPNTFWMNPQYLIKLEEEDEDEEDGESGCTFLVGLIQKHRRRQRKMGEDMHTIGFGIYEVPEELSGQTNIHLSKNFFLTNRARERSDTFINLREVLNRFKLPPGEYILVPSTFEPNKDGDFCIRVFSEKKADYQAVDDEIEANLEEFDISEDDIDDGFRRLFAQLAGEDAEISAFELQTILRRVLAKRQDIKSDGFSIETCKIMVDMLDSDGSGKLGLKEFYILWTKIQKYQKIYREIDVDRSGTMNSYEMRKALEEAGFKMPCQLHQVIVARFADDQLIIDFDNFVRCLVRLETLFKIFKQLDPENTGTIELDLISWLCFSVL
# UniProt Q8N8R5: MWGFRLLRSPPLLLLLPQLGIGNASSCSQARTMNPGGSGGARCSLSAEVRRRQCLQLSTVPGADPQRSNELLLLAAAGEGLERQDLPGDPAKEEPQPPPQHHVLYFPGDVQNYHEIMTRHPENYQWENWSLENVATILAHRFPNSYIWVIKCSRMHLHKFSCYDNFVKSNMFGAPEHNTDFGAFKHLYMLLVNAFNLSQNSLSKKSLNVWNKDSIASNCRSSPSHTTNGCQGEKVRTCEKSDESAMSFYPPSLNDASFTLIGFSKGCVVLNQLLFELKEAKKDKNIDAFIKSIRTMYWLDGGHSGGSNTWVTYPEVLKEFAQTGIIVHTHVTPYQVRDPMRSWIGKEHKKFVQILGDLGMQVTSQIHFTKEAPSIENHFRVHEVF
# UniProt P55212: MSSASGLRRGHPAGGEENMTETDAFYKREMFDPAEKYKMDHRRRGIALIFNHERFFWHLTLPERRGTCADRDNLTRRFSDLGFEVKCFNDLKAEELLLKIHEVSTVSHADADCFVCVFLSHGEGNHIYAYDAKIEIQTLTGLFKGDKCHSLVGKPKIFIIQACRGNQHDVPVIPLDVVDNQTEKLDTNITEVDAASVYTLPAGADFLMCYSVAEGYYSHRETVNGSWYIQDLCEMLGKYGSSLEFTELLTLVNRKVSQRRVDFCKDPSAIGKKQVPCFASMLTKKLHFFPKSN
# UniProt O15234, 32-52: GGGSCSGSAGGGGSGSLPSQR
# UniProt O43683: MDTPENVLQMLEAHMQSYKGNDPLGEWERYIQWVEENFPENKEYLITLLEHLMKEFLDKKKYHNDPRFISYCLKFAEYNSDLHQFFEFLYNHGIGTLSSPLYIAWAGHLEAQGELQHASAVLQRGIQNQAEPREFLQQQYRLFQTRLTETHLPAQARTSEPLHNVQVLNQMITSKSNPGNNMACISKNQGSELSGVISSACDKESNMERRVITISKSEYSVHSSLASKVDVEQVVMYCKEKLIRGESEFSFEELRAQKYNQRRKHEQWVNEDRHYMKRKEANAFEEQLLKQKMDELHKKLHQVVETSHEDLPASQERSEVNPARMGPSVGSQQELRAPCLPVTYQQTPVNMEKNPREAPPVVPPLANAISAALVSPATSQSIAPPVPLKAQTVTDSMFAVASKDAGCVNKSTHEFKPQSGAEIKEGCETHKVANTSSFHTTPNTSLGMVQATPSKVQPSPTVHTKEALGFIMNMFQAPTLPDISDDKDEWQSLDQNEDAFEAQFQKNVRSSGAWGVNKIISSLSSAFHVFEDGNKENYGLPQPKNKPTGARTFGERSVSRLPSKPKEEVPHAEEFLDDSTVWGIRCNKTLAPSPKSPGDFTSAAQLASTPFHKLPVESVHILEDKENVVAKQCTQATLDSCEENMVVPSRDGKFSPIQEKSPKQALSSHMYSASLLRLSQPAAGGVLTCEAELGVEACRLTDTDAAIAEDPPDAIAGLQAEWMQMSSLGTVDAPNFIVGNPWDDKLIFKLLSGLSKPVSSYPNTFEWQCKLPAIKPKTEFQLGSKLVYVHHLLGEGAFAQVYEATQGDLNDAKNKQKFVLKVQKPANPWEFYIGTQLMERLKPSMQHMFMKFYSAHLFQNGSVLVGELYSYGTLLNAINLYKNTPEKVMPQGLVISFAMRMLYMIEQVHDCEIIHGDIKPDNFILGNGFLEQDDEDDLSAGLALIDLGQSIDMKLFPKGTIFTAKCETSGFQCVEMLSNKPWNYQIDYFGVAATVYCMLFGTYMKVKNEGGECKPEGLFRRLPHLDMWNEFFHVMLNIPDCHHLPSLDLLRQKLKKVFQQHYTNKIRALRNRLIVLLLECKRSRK
# UniProt O14523, 356-381: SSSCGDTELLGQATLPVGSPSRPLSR
# UniProt O75808, 121-144: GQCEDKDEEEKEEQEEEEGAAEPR
# The list shows a part of the results. The data scatter; read single values as rough.
# What was measured:
# [1] = compound: ClCC(=O)N[C@@H]1CCCc2ccccc12; assay: log2 mean competition ratio of IA-DTB cysteine labelling (DMSO/compound) (log2 ratio); higher = stronger cysteine engagement by compound; settings: treatment time: 4 h, cell line lysate: HEK293T
# Procedure: (§1)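 IA-DTB competitive cysteine chemoproteomics in HEK293T RIPA lysate. Lysates were treated with compound 29 or 30 at 50 or 200 µM for 4 h, then IA-DTB (500 µM, 1 h), trypsin-digested, NeutrAvidin-enriched and analysed by diaPASEF. Competition ratio = intensity DMSO / intensity compound (n=4 treated, n=64 DMSO); binding: mean log2 CR ≥ 1 and p ≤ 0.05 plus QC filters. Target is the cysteine site.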
# [2] = compound: ClCC(=O)N[C@H]1CCCc2ccccc12; assay: as above; settings: treatment time: 4 h, cell line lysate: HEK293T
# Procedure: as §1
Target,log2 mean competition ratio ([1]; 50 µM),log2 mean competition ratio ([1]; 200 µM),log2 mean competition ratio ([2]; 50 µM),log2 mean competition ratio ([2]; 200 µM)
BTAF1 C908 (UniProt O14981),0.0954,0.0756,0.11,0.0623
CAST C408 (UniProt P20810),0.0493,0.308,0.0766,0.53
CABIN1 C1769 (UniProt Q9Y6J0),-0.0906,-0.0945,0.035,-0.219
BOD1L1 C2337 (UniProt Q8NFC6),0.0368,0.0867,0.0458,-0.0755
CBR3 C143 (UniProt O75828),0.378,0.413,0.289,0.449
CACYBP C154 (UniProt Q9HB71),-0.202,-0.248,0.33,-0.0653
BRCA2 C2212 (UniProt P51587),0.00319,-0.264,-0.0453,-0.193
CBFA2T2 C573 (UniProt O43439),0.078,0.000623,0.143,-0.125
BRPF1 C992,0.0379,-0.139,0.467,0.287
CAMSAP1 C1386 (UniProt Q5T5Y3),0.294,0.399,0.104,0.318
BPHL C234 (UniProt Q86WA6),0.0568,-0.0574,-0.699,-0.25
CBS C370 (UniProt P35520),0.159,0.191,-0.0863,0.295
CAND2 C959 (UniProt O75155),-0.309,-0.0496,0.0807,0.208
C8orf82 C98 (UniProt Q6P1X6),0.105,-0.475,0.279,-0.232
BUB1B C744 (UniProt O60566),0.233,0.129,0.19,0.00712
CAND1 C131,-0.188,0.138,-0.209,0.102
CAPN1 C11,-0.462,-0.215,-0.304,-0.0183
CAND1 C71,-0.101,-0.335,0.185,-0.143
CAND2 C240 (UniProt O75155),0.201,0.173,-0.223,-0.0633
BOD1L1 C2570 (UniProt Q8NFC6),-0.0655,0.0652,0.0192,0.0817
CAMK2D C290 (UniProt Q13557),-0.139,-0.426,0.282,-0.164
BRAT1 C207 (UniProt Q6PJG6),-0.177,0.0735,-0.128,-0.088
CASP9 C187 (UniProt P55211),-0.143,0.0727,-0.0739,0.00598
BRCA2 C916 (UniProt P51587),-0.149,0.0125,-0.457,-0.0381
CAMKV C301,-0.113,-0.12,0.03,-0.108

Target,log2 mean competition ratio ([1]; 50 µM),log2 mean competition ratio ([1]; 200 µM),log2 mean competition ratio ([2]; 50 µM),log2 mean competition ratio ([2]; 200 µM)
C18orf21 C175 (UniProt Q32NC0),-0.134,0.378,-0.193,0.103
C18orf21 C104 (UniProt Q32NC0),0.144,-0.363,0.732,-0.288
CASP2 C343 (UniProt P42575),0.0696,-0.311,-0.411,-0.185
C17orf80 C228 (UniProt Q9BSJ5),-0.0831,0.214,-0.0847,0.13
C11orf96 C420 (UniProt Q7Z7L8),-0.0135,0.138,0.418,0.462
CAMSAP1 C848 (UniProt Q5T5Y3),-0.241,0.132,0.217,0.185
CADPS2 C639,0.155,0.21,-0.101,0.271
BRD1 C895,-0.185,-0.203,-0.289,-0.226
C9orf78 C145 (UniProt Q9NZ63),-0.243,-0.17,0.181,-0.0162
BOD1L1 C1729 (UniProt Q8NFC6),-0.127,0.194,-0.13,0.0641
C1orf50 C110 (UniProt Q9BV19),0.342,0.0208,-0.119,-0.162
BRD4 C674 (UniProt O60885),0.435,0.175,0.479,0.135
CAD C868,0.124,0.237,-0.363,-0.0704
CAMKK2 C34 (UniProt Q96RR4),0.0657,0.428,-0.201,0.143
C8orf76 C32 (UniProt Q96K31),-0.235,-0.12,-0.188,-0.033
CAPN2 C577 (UniProt P17655),-0.247,-0.019,0.0215,-0.0167
C17orf75 C182 (UniProt Q9HAS0),0.0162,0.0148,-0.0854,-0.0845
C3orf80 C177,-0.186,0.276,-0.551,0.0158
C15orf39 C210 (UniProt Q6ZRI6),0.154,-0.0102,0.688,0.3
C2orf69 C43 (UniProt Q8N8R5),-0.0353,0.122,-0.016,0.16
C2CD5 C258 (UniProt Q86YS7),-0.0442,-0.135,0.0456,-0.203
CARS1 C27,-0.223,-0.249,0.401,-0.00402
BORCS6 C356 (UniProt Q96GS4),0.0404,-0.197,0.29,0.103
CBFA2T2 C261 (UniProt O43439),-0.0478,0.0624,0.619,0.471
CASK C698 (UniProt O14936),0.183,0.183,0.127,0.18

# Retrieved one by one from the entries so far (three):
Target,log2 mean competition ratio ([1]; 50 µM),log2 mean competition ratio ([1]; 200 µM),log2 mean competition ratio ([2]; 50 µM),log2 mean competition ratio ([2]; 200 µM)
CAPN2 C577 (UniProt P17655),-0.247,-0.019,0.0215,-0.0167
C2orf69 C43 (UniProt Q8N8R5),-0.0353,0.122,-0.016,0.16
C8orf76 C32 (UniProt Q96K31),-0.235,-0.12,-0.188,-0.033

# (further entries)

Target,log2 mean competition ratio ([1]; 50 µM),log2 mean competition ratio ([1]; 200 µM),log2 mean competition ratio ([2]; 50 µM),log2 mean competition ratio ([2]; 200 µM)
BNIP3 C129 (UniProt Q12983),-0.156,0.0571,-0.217,-0.1
CASP6 C264 (UniProt P55212),-0.0735,0.0102,-0.35,-0.163
CASP8AP2 C592 (UniProt Q9UKL3),0.0573,-0.199,-0.361,-0.213
CAMSAP2 C1416 (UniProt Q08AD1),-0.133,-0.0566,0.329,-0.28
CAPZB C8 (UniProt P47756),-0.413,-0.797,0.111,0.401
C5orf22 C165 (UniProt Q49AR2),-0.0662,0.241,-0.452,0.352
C12orf57 C44 (UniProt Q99622),0.0615,0.396,0.205,0.609
BORA C324 (UniProt Q6PGQ7),-0.271,-0.141,-0.2,0.196
BRCA2 C2473 (UniProt P51587),-0.103,0.0336,-0.217,-0.223
BOD1L1 C686 (UniProt Q8NFC6),-0.132,-0.152,-0.142,-0.0354
BRPF3 C981,-0.141,-0.348,-0.0565,0.0516
CASC3 C36 (UniProt O15234),-0.0638,0.24,0.032,0.171
BUB1 C184 (UniProt O43683),0.0945,0.16,0.17,0.181
C7orf25 C8 (UniProt Q9BPX7),0.185,0.342,-0.354,0.309
CAMSAP2 C675 (UniProt Q08AD1),-0.0956,-0.104,0.0473,-0.0342
C17orf80 C332 (UniProt Q9BSJ5),0.317,0.111,0.175,0.185
CALR C105,0.072,-0.0281,0.000689,-0.157
C2orf69 C219 (UniProt Q8N8R5),-0.00677,0.245,0.0498,0.213
CAMSAP1 C947 (UniProt Q5T5Y3),-0.0496,0.0607,-0.372,-0.251
CASP6 C68 (UniProt P55212),0.0275,0.0602,-0.0844,0.157
BTBD10 C86 (UniProt Q9BSF8),0.0105,-0.0853,0.449,-0.03
C2orf69 C230 (UniProt Q8N8R5),-0.134,0.205,-0.0667,0.379
BPNT1 C42,-0.21,0.0073,-0.126,0.0131
BRD8 C142 (UniProt Q9H0E9),-0.159,0.164,-0.183,0.143
BOD1L1 C1947 (UniProt Q8NFC6),-0.203,0.0328,0.198,0.193

# Single records, from the list above. Values in the order: log2 mean competition ratio ([1]; 50 µM)	log2 mean competition ratio ([1]; 200 µM)	log2 mean competition ratio ([2]; 50 µM)	log2 mean competition ratio ([2]; 200 µM)
# BUB1 C184 (UniProt O43683) as listed: 0.0945	0.16	0.17	0.181
# BPNT1 C42 as listed: -0.21	0.0073	-0.126	0.0131
# BRD8 C142 (UniProt Q9H0E9) as listed: -0.159	0.164	-0.183	0.143
# CASP6 C264 (UniProt P55212) as listed: -0.0735	0.0102	-0.35	-0.163

# Later entries.

Target,log2 mean competition ratio ([1]; 50 µM),log2 mean competition ratio ([1]; 200 µM),log2 mean competition ratio ([2]; 50 µM),log2 mean competition ratio ([2]; 200 µM)
BZW2 C270 (UniProt Q9Y6E2),0.0847,0.446,0.938,0.724
CAP1 C93,0.0525,-0.151,0.136,-0.195
CAAP1 C170 (UniProt Q9H8G2),-0.115,-0.175,-0.0324,-0.16
BUB3 C129 (UniProt O43684),-0.127,-0.113,-0.246,-0.184
BOD1L1 C1554 (UniProt Q8NFC6),-0.179,-0.123,-0.0258,0.0133
BRCA1 C348 (UniProt P38398),-0.0843,0.271,-0.0188,0.299
C17orf75 C357 (UniProt Q9HAS0),0.000746,-0.0849,-0.107,-0.0846
BTD C380 (UniProt P43251),-0.0959,0.211,-0.279,0.128
BRCA1 C903 (UniProt P38398),-0.0396,0.0704,-0.194,0.166
CBX2 C284 (UniProt Q14781),0.252,0.208,0.00158,0.325
BPTF C660,-0.446,0.0707,-0.45,0.078
CAPN10 C130,0.0819,–,-0.168,0.244
BUB1 C1013 (UniProt O43683),-0.173,0.345,-0.335,0.102
C17orf80 C164 (UniProt Q9BSJ5),-0.0801,-0.295,0.287,0.0185
CAMSAP1 C828 (UniProt Q5T5Y3),-0.0901,0.104,-0.0435,0.31
C2CD2L C359 (UniProt O14523),0.0279,-0.22,-0.281,0.0468
BORA C130 (UniProt Q6PGQ7),0.0432,0.152,-0.286,0.356
BPTF C882,-0.032,-0.276,-0.465,-0.161
BPHL C225 (UniProt Q86WA6),-0.0857,0.138,-0.0771,0.0337
CABIN1 C690 (UniProt Q9Y6J0),0.0199,0.184,-0.296,-0.00684
BTBD11 C1027 (UniProt A6QL63),-0.272,-0.00841,-0.532,-0.301
C18orf21 C18 (UniProt Q32NC0),0.0884,0.0226,0.164,-0.0976
CAPN15 C123 (UniProt O75808),-0.112,-0.19,-0.117,-0.0234
